# According to PMC7193404:
# By UniProt entry, the sequences of proteins in these tests, tags left out. Residues count along the entry.
# UniProt P22607, residues 23-375: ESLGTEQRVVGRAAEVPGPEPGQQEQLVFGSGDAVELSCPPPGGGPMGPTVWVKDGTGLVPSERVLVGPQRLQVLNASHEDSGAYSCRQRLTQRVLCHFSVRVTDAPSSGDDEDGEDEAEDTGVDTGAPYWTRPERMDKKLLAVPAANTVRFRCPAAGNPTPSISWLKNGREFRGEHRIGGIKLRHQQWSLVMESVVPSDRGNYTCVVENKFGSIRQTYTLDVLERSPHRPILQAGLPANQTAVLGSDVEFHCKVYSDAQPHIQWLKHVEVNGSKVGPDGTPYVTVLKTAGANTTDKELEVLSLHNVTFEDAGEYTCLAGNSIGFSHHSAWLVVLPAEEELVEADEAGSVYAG
# UniProt P21802, residues 22-377: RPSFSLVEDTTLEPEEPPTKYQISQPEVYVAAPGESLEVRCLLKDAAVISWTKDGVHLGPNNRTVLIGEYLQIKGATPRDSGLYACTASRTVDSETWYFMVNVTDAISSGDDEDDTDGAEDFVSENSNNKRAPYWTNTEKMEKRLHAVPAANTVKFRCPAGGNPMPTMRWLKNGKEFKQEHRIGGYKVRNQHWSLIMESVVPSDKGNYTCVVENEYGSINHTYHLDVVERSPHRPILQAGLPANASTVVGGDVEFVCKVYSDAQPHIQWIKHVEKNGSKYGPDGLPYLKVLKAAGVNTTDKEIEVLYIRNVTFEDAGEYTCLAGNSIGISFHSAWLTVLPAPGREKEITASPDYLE
# UniProt P11362, residues 22-376: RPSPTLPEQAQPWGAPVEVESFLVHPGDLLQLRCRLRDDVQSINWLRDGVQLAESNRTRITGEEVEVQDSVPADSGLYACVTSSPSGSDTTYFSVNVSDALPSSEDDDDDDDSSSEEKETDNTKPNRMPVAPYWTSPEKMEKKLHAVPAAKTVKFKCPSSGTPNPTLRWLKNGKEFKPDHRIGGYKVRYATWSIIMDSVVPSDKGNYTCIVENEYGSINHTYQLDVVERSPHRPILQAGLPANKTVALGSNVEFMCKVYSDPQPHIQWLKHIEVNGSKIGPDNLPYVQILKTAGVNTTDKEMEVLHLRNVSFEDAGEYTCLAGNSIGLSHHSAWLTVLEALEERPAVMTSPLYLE
# UniProt P22455, residues 22-369: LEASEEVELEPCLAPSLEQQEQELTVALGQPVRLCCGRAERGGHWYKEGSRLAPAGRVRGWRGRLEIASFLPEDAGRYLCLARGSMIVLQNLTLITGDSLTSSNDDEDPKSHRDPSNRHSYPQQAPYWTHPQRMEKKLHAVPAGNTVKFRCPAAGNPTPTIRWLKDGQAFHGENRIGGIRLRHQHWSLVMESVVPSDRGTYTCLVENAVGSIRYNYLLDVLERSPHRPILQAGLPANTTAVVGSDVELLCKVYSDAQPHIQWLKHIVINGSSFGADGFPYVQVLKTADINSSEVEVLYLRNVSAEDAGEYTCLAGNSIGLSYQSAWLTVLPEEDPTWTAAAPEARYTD
# These are yes or no findings as the source states them, for the method shown. Some entries that bind do so weakly or less than the wild type.
# Target: T1, fibroblast growth factor homologous factor 1, short isoform (FHF1b) (human) (UniProt P61328)
# T1 sequence: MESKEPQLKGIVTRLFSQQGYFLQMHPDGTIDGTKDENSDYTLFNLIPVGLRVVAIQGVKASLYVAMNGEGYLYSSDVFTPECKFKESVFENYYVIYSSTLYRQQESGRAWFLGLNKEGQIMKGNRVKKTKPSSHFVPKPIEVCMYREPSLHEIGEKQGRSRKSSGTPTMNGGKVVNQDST
# Assay: ELISA; FGF1 or FHF1 (0.05 uM) coated on Maxisorp plate, blocked with 3% BSA; FGFR-Fc in solution; washes in TBST pH 7.5; detected with anti-human IgG (Fc)-HRP, TMB, absorbance at 450 nm; both purified
row,Substance,binding
1,extracellular region of FGFR3 fused to the Fc fragment (from UniProt P22607 23-375) (Fc fusion),binds
2,extracellular region of FGFR2 fused to the Fc fragment (from UniProt P21802 22-377) (Fc fusion),binds
3,extracellular region of FGFR1 fused to the Fc fragment (from UniProt P11362 22-376) (Fc fusion),binds
4,extracellular region of FGFR4 fused to the Fc fragment (from UniProt P22455 22-369) (Fc fusion),binds
